From PMC12431657, “Discovery and mechanistic insights of dibenzoylmethane as a broad spectrum inhibitor of coronavirus” (PLOS Pathogens, 2025)
Among all 3,300 compounds or so, about 60 (2%) showed an effect of 50% or more. The list shows a part of the results.

system: HCoV-OC43; parameters: species or system RD; HTS, protection from HCoV-OC43 induced cell death, luminescent cell viability (CellCounting-Lite 2.0), inhibition rate; details: 24 h, 10 µM; inhibitor

Question: `O=C(/C=C/c1ccc(O)c(O)c1)OC1[C@H](O)CC(OC(=O)/C=C/c2ccc(O)c(O)c2)(C(=O)O)C[C@H]1O` (stereo partly shown) [1,4-Dicaffeoylquinic acid] was tested. Which “OC43 Inhibition rate” value did it give?
Answer: -0.4%

Question: With `CC(C)=CC[C@@H](OC(=O)CC(C)(C)O)C1=CC(=O)c2c(O)ccc(O)c2C1=O` [β-Hydroxyisovalerylshikonin] as the compound, how does the “OC43 Inhibition rate” value read?
Answer: 2.6%

Question: For `OCC(Cl)(Cl)Cl` [2,2,2-Trichloroethanol], which “OC43 Inhibition rate” value is on record?
Answer: 4.2%

Question: `CC(C(=O)O)C(=O)O` [Methylmalonic acid] was tested. Which “OC43 Inhibition rate” value did it give?
Answer: 9.7

Question: How did the “OC43 Inhibition rate” value turn out when `CN1CC[C@]23C(=O)C[C@H]4C(=CCO[C@H]5CC(=O)N(c6c(O)cccc62)[C@H]3[C@H]54)C1` [Vomicine] was run?
Answer: 1.7%

Question: How did the “OC43 Inhibition rate” value turn out when `C[C@H]1O[C@@H](O[C@H]2CC[C@@]3(C)[C@H](CC[C@@H]4[C@@H]3C[C@@H](O)[C@]3(C)[C@@H](C5=CC(=O)OC5)CC[C@]43O)C2)C[C@H](O)[C@@H]1O[C@H]1C[C@H](O)[C@H](O[C@H]2C[C@H](O)[C@H](O[C@@H]3O[C@H](CO)[C@@H](O)[C@H](O)[C@H]3O)[C@@H](C)O2)[C@@H](C)O1` [Deslanoside] was run?
Answer: 30.6

Question: `C=CCSC` [Allyl methyl sulfide] was tested. Which “OC43 Inhibition rate” value did it give?
Answer: 0.4

Question: Which “OC43 Inhibition rate” value does the source give for `CC1(C)O[C@@H]1COc1c2occc2cc2ccc(=O)oc12` [Heraclenin] here?
Answer: -0.5%

Question: With `C/C=C(\C)C(=O)O[C@@H]1C[C@H](O)[C@]23CO[C@H](C(=O)OC)[C@H]2[C@](C)([C@]24O[C@@]2(C)[C@H]2C[C@@H]4O[C@@H]4OC=C[C@@]42O)[C@H](O)[C@@H]2OC[C@@]1(C(=O)OC)[C@H]23` [Azadirachtin B] as the compound, how does the “OC43 Inhibition rate” value read?
Answer: 0.3%

Question: Which “OC43 Inhibition rate” value does the source give for `Cc1c([C@H](C)[C@@H]2NC[C@@H](C)C[C@H]2O)ccc2c1C[C@H]1[C@H]2CC=C2C[C@@H](O[C@@H]3O[C@H](CO)[C@@H](O)[C@H](O)[C@H]3O)CC[C@@]21C` [Veratrosine] here?
Answer: 5.4%

Question: For `C[C@]12CC[C@@H](O)C[C@H]1CC[C@@H]1[C@@H]2CC[C@]2(C)C(=O)CC[C@@H]12` [Etiocholanolone], which “OC43 Inhibition rate” value is on record?
Answer: -1%

Question: How did the “OC43 Inhibition rate” value turn out when `c1ccc2c(c1)ccc1c3ccccc3ccc21` [Chrysene] was run?
Answer: -0.5

Question: `O=C(O)c1ccc(=O)[nH]c1` [6-Hydroxynicotinic acid] was tested. Which “OC43 Inhibition rate” value did it give?
Answer: -1%

Question: `COC1=C[C@]23CCCN2CCc2cc4c(cc2[C@@H]3[C@@H]1O)OCO4` [Cephalotaxine] was tested. Which “OC43 Inhibition rate” value did it give?
Answer: 3.2%

Question: How did the “OC43 Inhibition rate” value turn out when `CCc1ccc(O)c2cc3c(nc12)-c1cc2c(c(=O)n1C3)COC(=O)[C@]2(O)CC` [12-Ethyl-9-hydroxycamptothecin] was run?
Answer: -8.1%

Question: For `C[C@@H]1C(=O)O[C@H]2[C@H](O)[C@@]34O[C@@H]5OC(=O)[C@H](O)[C@@]56[C@H](C(C)(C)C)[C@H](O)C(OC3=O)[C@]64[C@@]12O` (stereo partly shown) [Ginkgolide C], which “OC43 Inhibition rate” value is on record?
Answer: 0.9%
